# The list shows a part of the results.
# What was measured:
# Assay in all cases: glycan array binding signal (z-score within array); higher = stronger binding
# Settings in all cases: glycan notation: IUPAC condensed, linker removed
# [1] = target: Neu5Ac(a2-3)Gal6S(b1-4)[Fuc(a1-3)]GlcNAc
# Procedure, shortened: (§1)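 The binding signal is a Z-score computed within each array. Data were drawn from 3228 arrays in the Consortium for Functional Glycomics database, restricted to those with a known protein sequence. Scores were averaged over arrays of the same protein sequence at different concentrations or buffers, and over linkers, and negative values can be taken as non-binding.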
# Neu5Ac(a2-3)GalNAc = target: Neu5Ac(a2-3)GalNAc
# Procedure, shortened: as §1
# [2] = target: Neu5Ac(a2-3)GalNAc(b1-4)GlcNAc
# Procedure, shortened: as §1
# [3] = target: Neu5Ac(a2-3)[GalNAc(b1-4)]Gal(b1-4)Glc
# Procedure, shortened: as §1
# [4] = target: Neu5Ac(a2-3)[GalNAc(b1-4)]Gal(b1-4)GlcNAc
# Procedure, shortened: as §1
# [5] = target: Neu5Ac(a2-3)[GalNAc(b1-4)]Gal(b1-4)GlcNAc(b1-3)GalNAc
# Procedure, shortened: as §1
# [6] = target: Neu5Ac(a2-3)[Neu5Ac(a2-6)]GalNAc
# Procedure, shortened: as §1
# Neu5Ac(a2-6)Gal = target: Neu5Ac(a2-6)Gal
# Procedure, shortened: as §1
# Neu5Ac(a2-6)Gal(b1-4)Glc = target: Neu5Ac(a2-6)Gal(b1-4)Glc
# Procedure, shortened: as §1
# [7] = target: Neu5Ac(a2-6)Gal(b1-4)GlcNAc
# Procedure, shortened: as §1
# [8] = target: Neu5Ac(a2-6)Gal(b1-4)GlcNAc(b1-2)Man(a1-3)Man(b1-4)GlcNAc(b1-4)GlcNAc
# Procedure, shortened: as §1
# [9] = target: Neu5Ac(a2-6)Gal(b1-4)GlcNAc(b1-2)Man(a1-3)[Gal(b1-4)GlcNAc(b1-2)Man(a1-6)]Man(b1-4)GlcNAc(b1-4)GlcNAc
# Procedure, shortened: as §1
# [10] = target: Neu5Ac(a2-6)Gal(b1-4)GlcNAc(b1-2)Man(a1-3)[GlcNAc(b1-2)Man(a1-6)]Man(b1-4)GlcNAc(b1-4)GlcNAc
# Procedure, shortened: as §1
# [11] = target: Neu5Ac(a2-6)Gal(b1-4)GlcNAc(b1-2)Man(a1-3)[GlcNAc(b1-2)Man(b1-4)GlcNAc(b1-2)Man(a1-6)]Man(b1-4)GlcNAc(b1-4)GlcNAc
# Procedure, shortened: as §1
# [12] = target: Neu5Ac(a2-6)Gal(b1-4)GlcNAc(b1-2)Man(a1-3)[Man(a1-6)]Man(b1-4)GlcNAc(b1-4)GlcNAc
# Procedure, shortened: as §1
# [13] = target: Neu5Ac(a2-6)Gal(b1-4)GlcNAc(b1-2)Man(a1-3)[Neu5Ac(a2-6)Gal(b1-4)GlcNAc(b1-2)Man(a1-6)]Man(b1-4)GlcNAc(b1-4)GlcNAc
# Procedure, shortened: as §1
# [14] = target: Neu5Ac(a2-6)Gal(b1-4)GlcNAc(b1-2)Man(a1-6)Man(b1-4)GlcNAc(b1-4)GlcNAc
# Procedure, shortened: as §1
# [15] = target: Neu5Ac(a2-6)Gal(b1-4)GlcNAc(b1-2)Man(a1-6)[Gal(b1-4)GlcNAc(b1-2)Man(a1-3)]Man(b1-4)GlcNAc(b1-4)GlcNAc
# Procedure, shortened: as §1
# [16] = target: Neu5Ac(a2-6)Gal(b1-4)GlcNAc(b1-2)Man(a1-6)[GlcNAc(b1-2)Man(a1-3)]Man(b1-4)GlcNAc(b1-4)GlcNAc
# Procedure, shortened: as §1
# [17] = target: Neu5Ac(a2-6)Gal(b1-4)GlcNAc(b1-2)Man(a1-6)[Man(a1-3)]Man(b1-4)GlcNAc(b1-4)GlcNAc
# Procedure, shortened: as §1
# [18] = target: Neu5Ac(a2-6)Gal(b1-4)GlcNAc(b1-3)Gal(b1-3)GlcNAc
# Procedure, shortened: as §1
# [19] = target: Neu5Ac(a2-6)Gal(b1-4)GlcNAc(b1-3)Gal(b1-4)GlcNAc
# Procedure, shortened: as §1
# [20] = target: Neu5Ac(a2-6)Gal(b1-4)GlcNAc(b1-3)Gal(b1-4)GlcNAc(b1-3)Gal(b1-4)GlcNAc
# Procedure, shortened: as §1
# [21] = target: Neu5Ac(a2-6)Gal(b1-4)GlcNAc(b1-3)Gal(b1-4)[Fuc(a1-3)]GlcNAc(b1-3)Gal(b1-4)[Fuc(a1-3)]GlcNAc
# Procedure, shortened: as §1
# [22] = target: Neu5Ac(a2-6)Gal(b1-4)GlcNAc(b1-3)GalNAc
# Procedure, shortened: as §1
# [23] = target: Neu5Ac(a2-6)Gal(b1-4)GlcNAc6S
# Procedure, shortened: as §1
# Neu5Ac(a2-6)GalNAc = target: Neu5Ac(a2-6)GalNAc
# Procedure, shortened: as §1
# [24] = target: Neu5Ac(a2-6)GalNAc(b1-4)GlcNAc
# Procedure, shortened: as §1
# [25] = target: Neu5Ac(a2-6)GlcNAc(b1-4)GlcNAc
# Procedure, shortened: as §1
# [26] = target: Neu5Ac(a2-6)GlcNAc(b1-4)GlcNAc(b1-4)GlcNAc
# Procedure, shortened: as §1
# Neu5Ac(a2-8)Neu5Ac = target: Neu5Ac(a2-8)Neu5Ac
# Procedure, shortened: as §1
# [27] = target: Neu5Ac(a2-8)Neu5Ac(a2-3)Gal(b1-4)Glc
# Procedure, shortened: as §1
# [28] = target: Neu5Ac(a2-8)Neu5Ac(a2-3)[GalNAc(b1-4)]Gal(b1-4)Glc
# Procedure, shortened: as §1
# [29] = target: Neu5Ac(a2-8)Neu5Ac(a2-8)Neu5Ac
# Procedure, shortened: as §1
# [30] = target: Neu5Ac(a2-8)Neu5Ac(a2-8)Neu5Ac(a2-3)Gal(b1-4)Glc
# Procedure, shortened: as §1
# [31] = target: Neu5Ac(a2-8)Neu5Ac(a2-8)Neu5Ac(a2-3)[GalNAc(b1-4)]Gal(b1-4)Glc
# Procedure, shortened: as §1
# [32] = target: Neu5Ac(a2-8)Neu5Ac(a2-8)Neu5Ac(a2-8)Neu5Ac(a2-3)[GalNAc(b1-4)]Gal(b1-4)Glc
# Procedure, shortened: as §1
# [33] = target: Neu5Ac(b2-6)Gal(b1-4)GlcNAc
# Procedure, shortened: as §1
# Neu5Ac(b2-6)GalNAc = target: Neu5Ac(b2-6)GalNAc
# Procedure, shortened: as §1
# [34] = target: Neu5Ac9Ac(a2-3)Gal(b1-3)GlcNAc
# Procedure, shortened: as §1
# [35] = target: Neu5Ac9Ac(a2-3)Gal(b1-4)GlcNAc
# Procedure, shortened: as §1
# [36] = target: Neu5Ac9Ac(a2-6)Gal(b1-4)GlcNAc
# Procedure, shortened: as §1
# [37] = target: Neu5Gc(a2-3)Gal(b1-3)GlcNAc
# Procedure, shortened: as §1
# [38] = target: Neu5Gc(a2-3)Gal(b1-3)[Fuc(a1-4)]GlcNAc
# Procedure, shortened: as §1
# Neu5Gc(a2-3)Gal(b1-4)Glc = target: Neu5Gc(a2-3)Gal(b1-4)Glc
# Procedure, shortened: as §1
# [39] = target: Neu5Gc(a2-3)Gal(b1-4)GlcNAc
# Procedure, shortened: as §1
# [40] = target: Neu5Gc(a2-3)Gal(b1-4)[Fuc(a1-3)]GlcNAc
# Procedure, shortened: as §1
# [41] = target: Neu5Gc(a2-6)Gal(b1-4)GlcNAc
# Procedure, shortened: as §1
# Neu5Gc(a2-6)GalNAc = target: Neu5Gc(a2-6)GalNAc
# Procedure, shortened: as §1
# [42] = target: Neu5Gc(b2-6)Gal(b1-4)GlcNAc
# Procedure, shortened: as §1
binder,measurement,setting,value
"SRS6 (Toxoplasma gondii), Q9NH12 (protein) MARTGSMQQRRGGFQTTARMLMAVCVSGVLLLSSGPSSANKLTEGQQNQNSGPGAATQEGPTIEGAVAKCVLKTTAAENGSSRAKNTTGLTLSKENLVVSLQCSGEKNAIVPKDQKKVCSAAPNAKVADCKGADTDKQVTLKSLLGTSGDIQWEKTIVSTDNKGEVMTLKIKESELPLFDKAFFVGCEEDKAQTRTSQATECKVNVSVKARPSTVGENNVVTCAYGKDSNPRPLEVEMSADNDTLTIDCGTDGSLKPTKYTEEFCVTDNSQLESCTTKKFSEILPTFLPSWWVSDSQNGSAKLTIPESGFPEEQQQFRLGCVPKKTTQSPQANPSVKTEKEEGAQNTDASTSNCSVIVTVKASNFSSLASSIAPTAAVAGGAAALTGFLVGSF",glycan array binding signal (z-score),[1],0.557
same,glycan array binding signal (z-score),Neu5Ac(a2-3)GalNAc,-0.337
same,glycan array binding signal (z-score),[2],-0.177
same,glycan array binding signal (z-score),[3],-0.162
same,glycan array binding signal (z-score),[4],-0.041
same,glycan array binding signal (z-score),[5],-1.14
same,glycan array binding signal (z-score),[6],0.265
same,glycan array binding signal (z-score),Neu5Ac(a2-6)Gal,0.288
same,glycan array binding signal (z-score),Neu5Ac(a2-6)Gal(b1-4)Glc,0.098
same,glycan array binding signal (z-score),[7],-0.11
same,glycan array binding signal (z-score),[8],1.02
same,glycan array binding signal (z-score),[9],0.579
same,glycan array binding signal (z-score),[10],-0.395
same,glycan array binding signal (z-score),[11],0.178
same,glycan array binding signal (z-score),[12],0.862
same,glycan array binding signal (z-score),[13],0.976
same,glycan array binding signal (z-score),[14],1.02
same,glycan array binding signal (z-score),[15],-0.684
same,glycan array binding signal (z-score),[16],-0.168
same,glycan array binding signal (z-score),[17],0.253
same,glycan array binding signal (z-score),[18],-0.336
same,glycan array binding signal (z-score),[19],-0.533
same,glycan array binding signal (z-score),[20],-0.211
same,glycan array binding signal (z-score),[21],-0.419
same,glycan array binding signal (z-score),[22],-0.452
same,glycan array binding signal (z-score),[23],-0.59
same,glycan array binding signal (z-score),Neu5Ac(a2-6)GalNAc,-0.745
same,glycan array binding signal (z-score),[24],-1.52
same,glycan array binding signal (z-score),[25],-0.656
same,glycan array binding signal (z-score),[26],0.094
same,glycan array binding signal (z-score),Neu5Ac(a2-8)Neu5Ac,-0.128
same,glycan array binding signal (z-score),[27],-0.498
same,glycan array binding signal (z-score),[28],0.871
same,glycan array binding signal (z-score),[29],-0.225
same,glycan array binding signal (z-score),[30],0.26
same,glycan array binding signal (z-score),[31],0.338
same,glycan array binding signal (z-score),[32],-0.85
same,glycan array binding signal (z-score),[33],0.323
same,glycan array binding signal (z-score),Neu5Ac(b2-6)GalNAc,0.117
same,glycan array binding signal (z-score),[34],0.057
same,glycan array binding signal (z-score),[35],-0.312
same,glycan array binding signal (z-score),[36],-0.64
same,glycan array binding signal (z-score),[37],-1.15
same,glycan array binding signal (z-score),[38],-0.377
same,glycan array binding signal (z-score),Neu5Gc(a2-3)Gal(b1-4)Glc,-0.529
same,glycan array binding signal (z-score),[39],0.659
same,glycan array binding signal (z-score),[40],0.103
same,glycan array binding signal (z-score),[41],0.342
same,glycan array binding signal (z-score),Neu5Gc(a2-6)GalNAc,-0.546
same,glycan array binding signal (z-score),[42],0.403

# Some of the entries above in a different format:
binder	measurement	setting	value
SRS6 (Toxoplasma gondii), Q9NH12 (protein) MARTGSMQQRRGGFQTTARMLMAVCVSGVLLLSSGPSSANKLTEGQQNQNSGPGAATQEGPTIEGAVAKCVLKTTAAENGSSRAKNTTGLTLSKENLVVSLQCSGEKNAIVPKDQKKVCSAAPNAKVADCKGADTDKQVTLKSLLGTSGDIQWEKTIVSTDNKGEVMTLKIKESELPLFDKAFFVGCEEDKAQTRTSQATECKVNVSVKARPSTVGENNVVTCAYGKDSNPRPLEVEMSADNDTLTIDCGTDGSLKPTKYTEEFCVTDNSQLESCTTKKFSEILPTFLPSWWVSDSQNGSAKLTIPESGFPEEQQQFRLGCVPKKTTQSPQANPSVKTEKEEGAQNTDASTSNCSVIVTVKASNFSSLASSIAPTAAVAGGAAALTGFLVGSF	glycan array binding signal (z-score)	[13]	0.976
same	glycan array binding signal (z-score)	[16]	-0.168
same	glycan array binding signal (z-score)	[25]	-0.656

# From the supplement of paper PMC8728848
